Library screen at single concentrations

Chains of the proteins cited; added tags and fusions are not shown.
UniProt P9WFT3, whole entry: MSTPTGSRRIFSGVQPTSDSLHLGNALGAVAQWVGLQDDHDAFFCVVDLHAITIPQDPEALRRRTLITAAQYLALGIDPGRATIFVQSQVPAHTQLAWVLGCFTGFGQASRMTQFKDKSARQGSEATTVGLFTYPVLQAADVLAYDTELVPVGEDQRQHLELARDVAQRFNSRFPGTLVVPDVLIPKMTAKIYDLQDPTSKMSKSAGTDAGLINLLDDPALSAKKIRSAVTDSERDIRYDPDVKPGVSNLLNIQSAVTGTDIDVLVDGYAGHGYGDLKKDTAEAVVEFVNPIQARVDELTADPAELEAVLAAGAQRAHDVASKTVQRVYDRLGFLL

Data taken from ChEMBL document CHEMBL3988442, “University of Dundee, Small-Polar-MMV Screening Library” (2021).

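Enzyme assay of tryptophanyl-tRNA synthetase; the read-out is not stated. Target: Tryptophan-tRNA ligase, Mycobacterium tuberculosis (UniProt P9WFT3). Compounds at 10 µM. Higher most likely means stronger inhibition; the record gives no direction and few retests gave an IC50. Size under these conditions: about 65,000 compounds, about 64 of them at 50% or above in at least one test.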

The filed quantity is “Percent Effect” (%). How 0% and 100% were set is not recorded. Most values in the screen are low, and negative values occur. The compounds are a random part of those screened.

compound | Percent Effect
CC(C)C1Nc2ccccc2C(=O)N1CC(=O)Nc1nc2c(s1)CCC2 (stereo not shown) | 3.376
CN1CCN(c2ccc(F)cc2C(N)=O)CC1 | -0.06325
Cc1ccc(-c2ccnc(NC(C)c3n[nH]c(=O)[nH]3)n2)c(C)n1 (stereo not shown) | 2.292
CNC(=O)Cc1ccc(-n2ccnc2-c2ccc(C(=O)O)s2)cc1 | 0.7874
CCOC(C)c1nc(CN2CCN(c3ncc(C)cn3)CC2)cs1 (stereo not shown) | -0.7048
CS(=O)(=O)N1CCN(c2ccnc(N3CCCC3)n2)CC1 | -5.06
Cc1nc(N2CCOc3ccc(CO)cc3C2)c2c(C)noc2n1 | -2.102
Cc1nnc2n1CCN(Cc1csc(-c3ccsc3)n1)C2 | -8.824
CN(C)CCN(Cc1ccc(F)cc1)C(=O)c1ccn(C)c(=O)c1 | 3.265
COc1ccc(Cl)cc1C(=O)N1CCCC(n2nc(C)nc2C)C1 (stereo not shown) | -0.3934
CCC(C)CN(C)C(=O)NCc1ccccc1-n1cccn1 (stereo not shown) | 1.763
CCOCCn1c(=O)n(CCC=C(C)C)c2cc(C(=O)O)cnc21 | -4.069
CC(C)(CNC(=O)Nc1nccs1)N1CCOCC1 | 0.3974
CC(=O)N1CCCC(C(=O)N2CCN(c3cnn(C)c(=O)c3)CC2)C1 (stereo not shown) | 23.85
NC(=O)C1CCN(CCCNC(=O)Nc2nccs2)CC1 | 0.153
CCc1ccc(-c2cn(CCSc3ncn[nH]3)nn2)nc1 | 1.308
N#Cc1ccc(N2CCCC2Cn2cncn2)nc1 (stereo not shown) | -7.873
CCOC1CC2(CCN(CCO)CC2)c2ccc(C)cc21 (stereo not shown) | 0.7319
c1ccc(OCc2nnc3n2CCN(CC2CCOCC2)C3)nc1 | 5.657
COc1ccc(NC(=O)CSc2nc(C)c(C)c(C)c2C#N)cn1 | 1.032
CN1CCC(CNC(=O)NCc2ccc(F)cc2)CC1 | 4.157
CCS(=O)(=O)N1CCC2(CC1)CN(Cc1ccccn1)C(=O)CO2 | 5.273
COCC1CN(C(=O)Cc2cccc(F)c2)Cc2ccnn2C1 (stereo not shown) | 0.08231
CN(C)CC(=O)NC1CC(=O)N(CCc2ccccc2)C1 (stereo not shown) | 0.8972
CNC(=O)[C@@H](c1ccccc1)N1CCC[C@H]1C(=O)NC1CCCCC1 | -2.033
COc1cccc(CC(=O)N2CCCC(c3nncn3C)C2)c1 (stereo not shown) | -7.345
CC(C)OCCN1CCN(c2ccc(CN(C)C)cn2)CC1 | 1.493
CC(C)c1n[nH]c(C2CN(CC(=O)N(C)Cc3ccco3)CCO2)n1 (stereo not shown) | -2.018
COc1cccc(COCC(O)CN(C)c2ccc(C)cc2C)c1 (stereo not shown) | -0.6731
Cn1c(N2CCOCC2)nc2cc(C(=O)N3CCCOCC3)ccc21 | 2.292
Cn1cc(CN2CC[C@H]3[C@H]2CC(=O)N3Cc2ccncc2)cn1 | -3.98
CN(Cc1ncnn1C)C1CCN(c2sccc2C#N)C1=O (stereo not shown) | 2.023
N#Cc1cccc(CN2C[C@@H](F)[C@@H](OCc3nc4ccccc4[nH]3)C2)c1 | -6.941
COc1ccc2cc(NC(=O)CCCNc3ncccn3)cnc2c1 | -3.011
c1ccc2oc(N3CCCC3Cn3cncn3)nc2c1 (stereo not shown) | -7.866
CC(C)Nc1ncc(-c2ccncc2)c([C@@H]2CCCO2)n1 | 3.045
COCCC(=O)N1CCC2(CCN(Cc3ccc(OC)c(F)c3)C2)C1 (stereo not shown) | -0.6427
c1ccc(C2CN(C3CC3)CC3(CCN(Cc4ncc[nH]4)CC3)C2)cc1 (stereo not shown) | 0.08223
O=C(N1CCCC1)C12CC(CN1Cc1nccs1)C2 | -0.9709
CCN(Cc1noc(CC(C)C)n1)Cc1cc2ccc(F)cc2[nH]c1=O | -1.61
COCC(=O)N[C@H](C)c1c(-c2ccc(OC)cc2)noc1C(=O)O | 0.8346
O=C(CCn1ccccc1=O)Nc1ccc(F)c(Cl)c1 | 3.521
CSCC[C@@H](CO)Nc1nc(-c2ccccn2)nc2c1c(C)nn2C | 1.92
O=C(c1cnc(O)cn1)N1C[C@@H]2CC[C@H](C1)N(Cc1ccccc1)C2 | 7.126
CN(C)CCCNC(=O)c1cc(Br)c2c(c1)OCCO2 | -1.066
CC(C)N1CCc2c(C#N)c(NCc3ccco3)n3cnnc3c2C1 | 4.131
O=C(c1cnccn1)N1CCC(F)(F)C2(CCN(c3ccccn3)C2)C1 (stereo not shown) | -2.151
Cc1cc(C2CCCCN2C(=O)CN2CC3(CCNCC3)OC2=O)no1 (stereo not shown) | -3.078
O=C(C1CC=CC1)N1CC[C@@H]2O[C@H](COCC3CCOCC3)CC[C@@H]21 | -0.1833
O=C1COc2cc(C(=O)N3CCCC(n4cccn4)C3)ccc2N1 (stereo not shown) | -7.627
Cc1ccc(C(=O)N(C)Cc2cc(C)on2)cn1 | -6.138
Cc1cc(NC(=O)CN2CCc3nn(C)c(=O)cc3C2)no1 | 4.34
O=C1[C@H]2CN(Cc3ccccn3)C[C@H]2CN1c1ccsc1 | -0.2292
Cc1cnc(N2CCCC(c3ccccc3)C2)nc1-c1ncnn1C (stereo not shown) | -2.801
CC1CS(=O)(=O)CCN1Cc1ccccc1N(C)C (stereo not shown) | 3.725
Cc1cc(NC(=O)CN2CCn3c(nnc3C3CC3)C2)no1 | 2.685
CCN(C(=O)CNC1CCc2ncnn2C1)C1=CCCCC1 (stereo not shown) | 2.676
COCc1nc2c(o1)CN(C(=O)NCc1ccccc1)C2 | 2.379
CC1CCCN(C(=O)c2ccc(-c3ccco3)o2)C1 (stereo not shown) | 3.661
CCc1nc(CN(C)CC2CCN(CC(C)O)CC2)no1 (stereo not shown) | -4.102
COCc1cc(N(C)Cc2cnccn2)nc(C(C)(C)C)n1 | 1.636
CCOc1ncccc1CNC(=O)N1CCCC1c1ccsc1 (stereo not shown) | 3.374
O=C(NCCc1ccc(I)s1)N1CCC1 | 0.5112
Cc1nc(CN2CCCn3cnc(COC(C)C)c3C2)cs1 | -3.704
COc1cccc2ccc(CN3CCN(c4cccnc4)CC3)nc12 | 9.383
CC(=O)N1C[C@H](NS(=O)(=O)N2CCCC2)[C@@H](c2ccc(C)o2)C1 | -4.839
Cc1ccsc1C(=O)N1Cc2ccccc2C2(CCN(C)CC2)C1 | -6.04
CC(C)c1n[nH]c(C2CN(C(=O)c3cc4c(s3)CCC4)CCO2)n1 (stereo not shown) | -2.063
COCc1nc(N2CCC(CCO)CC2)c2cnn(C)c2n1 | 1.282
Cc1nn(C)c(C)c1-c1ccnc(N(C)Cc2nc(C(C)C)no2)n1 | -1.31
CC(C)NC(=O)C(C)S(=O)(=O)c1cc2c(cc1Cl)OCCO2 (stereo not shown) | 0.3112
c1cnc(N2CCN(Cc3nnnn3C3CC3)CC2)nc1 | -4.562
CCC(CNC(=O)c1ccco1)N1CCc2ccccc2C1 (stereo not shown) | 1.146
CC1CCN(Cc2ccccc2CNC(=O)C2CNC(=O)N2)CC1 (stereo not shown) | -3.988
O=C1CC[C@@H]2[C@@H](CCN2C(=O)C2CCOCC2)N1CC1CC1 | -2.562
CCC1=N[C@@]2(CC[C@@H]3CN(C(=O)NCC(C)C)C[C@@H]32)C(=O)N1CC(C)C | -0.5247
CCn1nc(C)c(CN(CCOC)Cc2ccccn2)c1C | 1.083
COCCCNC(=O)N1CCCC(c2nncn2C)C1 (stereo not shown) | 6.53
O=S(=O)(C1CC1)N1CCC2(CCCN(c3ncc(F)cn3)C2)C1 (stereo not shown) | -7.685
Cc1cnn(CC2CN(CCCS(C)(=O)=O)CCO2)c1 (stereo not shown) | -1.754
Cc1ccc(CN2CCCn3c(nc(Cn4ccnc4)cc3=O)C2)o1 | -0.1383
COCCNC(C)c1ccc(-c2cccnc2)cc1 (stereo not shown) | -0.7498
COCCCNC(=O)c1cc(-c2cnc(N(C)C)nc2)cn1CC1CC1 | 2.884
O=C(CN1CCOCC1)N1CCC(c2cc(N3CCCC3)ncn2)CC1 | -7.581
CCOCC(=O)N1C[C@H]2CC[C@@H]1CN(C(=O)c1ccncc1)C2 | -4.669
CN(Cc1cccnc1)c1nc(-c2ccccn2)nc2c1CCNCC2 | -3.454
NCCn1cc(C(=O)N2CCNC(=O)C2c2cccc(F)c2)nn1 (stereo not shown) | 0.8972
CCc1noc(CN2CCC(C(=O)Nc3cnn(CC)c3)CC2)n1 | -4.023
COCc1cnc2n1CCN(C(=O)C1=CCCCC1)C2C (stereo not shown) | 6.432
CCc1nnc2n1CCN(C(C(=O)NC1CC1)c1ccc(F)cc1)C2 (stereo not shown) | 1.052
O=C(O)c1c(-c2cccnc2)ncc2c1CCN(Cc1cccnc1)C2 | -7.672

The first 7 entries again:

* CC(C)C1Nc2ccccc2C(=O)N1CC(=O)Nc1nc2c(s1)CCC2 (stereo not shown) | 3.376%
* CN1CCN(c2ccc(F)cc2C(N)=O)CC1 | -0.06325%
* Cc1ccc(-c2ccnc(NC(C)c3n[nH]c(=O)[nH]3)n2)c(C)n1 (stereo not shown) | 2.292%
* CNC(=O)Cc1ccc(-n2ccnc2-c2ccc(C(=O)O)s2)cc1 | 0.7874%
* CCOC(C)c1nc(CN2CCN(c3ncc(C)cn3)CC2)cs1 (stereo not shown) | -0.7048%
* CS(=O)(=O)N1CCN(c2ccnc(N3CCCC3)n2)CC1 | -5.06%
* Cc1nc(N2CCOc3ccc(CO)cc3C2)c2c(C)noc2n1 | -2.102%